From article PMC9311869
No constants are given. Whether binding was seen depends on the method and setting. Binding seen in cells or lysates may run through a third protein. Some results given as binding are weak or reduced against the parent protein; the word gives no strength.

Protein sequences, listed by entry. Tags and fused reporters are not part of them.
UniProt P21796: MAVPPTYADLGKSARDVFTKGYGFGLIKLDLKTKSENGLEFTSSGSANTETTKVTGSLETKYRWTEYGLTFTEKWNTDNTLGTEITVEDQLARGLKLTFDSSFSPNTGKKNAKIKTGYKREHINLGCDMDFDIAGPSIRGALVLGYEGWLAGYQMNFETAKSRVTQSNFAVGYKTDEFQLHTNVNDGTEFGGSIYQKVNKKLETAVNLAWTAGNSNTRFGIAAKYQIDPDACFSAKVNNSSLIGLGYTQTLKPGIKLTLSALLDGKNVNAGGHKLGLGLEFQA

T1: Mitochondrial fission factor (human (endogenous in dopaminergic neurons differentiated from SHEDs)) (UniProt Q9GZY8)
T1 sequence: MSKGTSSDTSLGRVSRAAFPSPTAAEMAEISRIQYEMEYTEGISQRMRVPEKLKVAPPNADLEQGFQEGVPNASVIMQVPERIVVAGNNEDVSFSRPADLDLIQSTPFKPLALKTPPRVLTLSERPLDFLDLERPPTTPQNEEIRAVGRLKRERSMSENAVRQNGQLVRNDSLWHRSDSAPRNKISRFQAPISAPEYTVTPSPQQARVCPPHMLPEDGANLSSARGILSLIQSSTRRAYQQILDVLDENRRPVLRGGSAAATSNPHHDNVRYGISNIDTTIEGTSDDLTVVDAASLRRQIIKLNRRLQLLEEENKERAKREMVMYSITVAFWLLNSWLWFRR


Experiments:
[1] = biological target: T1, Mitochondrial fission factor (human (endogenous in dopaminergic neurons differentiated from SHEDs)); test: co-IP; IP with rabbit polyclonal anti-MFF antibody from lysate of untreated DNs (150 mM NaCl, 50 mM Tris-HCl pH 7.5, 1% CHAPS, 1 mM EDTA), overnight at 4 °C, protein A Mag Sepharose Xtra; Western blot
[2] = biological target: Voltage-dependent anion channel 1 (human (endogenous in dopaminergic neurons differentiated from SHEDs)) (UniProt P21796); test: co-IP; IP with rabbit polyclonal anti-VDAC1 antibody from lysate of untreated DNs (150 mM NaCl, 50 mM Tris-HCl pH 7.5, 1% CHAPS, 1 mM EDTA), overnight at 4 °C, protein A Mag Sepharose Xtra; Western blot

Molecule | binding [1] | binding [2]
Voltage-dependent anion channel 1 (from UniProt P21796 1-283) | binds | 
Mitochondrial fission factor (protein, UniProt Q9GZY8 1-342) MSKGTSSDTSLGRVSRAAFPSPTAAEMAEISRIQYEMEYTEGISQRMRVPEKLKVAPPNADLEQGFQEGVPNASVIMQVPERIVVAGNNEDVSFSRPADLDLIQSTPFKPLALKTPPRVLTLSERPLDFLDLERPPTTPQNEEIRAVGRLKRERSMSENAVRQNGQLVRNDSLWHRSDSAPRNKISRFQAPISAPEYTVTPSPQQARVCPPHMLPEDGANLSSARGILSLIQSSTRRAYQQILDVLDENRRPVLRGGSAAATSNPHHDNVRYGISNIDTTIEGTSDDLTVVDAASLRRQIIKLNRRLQLLEEENKERAKREMVMYSITVAFWLLNSWLWFRR |  | binds
